Test results published in article PMC5566832.

B1: T. annulata schizont membrane protein p104 (TA08425), endogenous (protein, UniProt Q4U9M9 20-873)
chain: DELVMSPIPTTDVQPKVTFDINSEVSSGPLYLNPVEMAGVKYLQLQRQPGVQVHKVVEGDIVIWENEEMPLYTCAIVTQNEVPYMAYVELLEDPDLIFFLKEGDQWAPIPEDQYLARLQQLRQQIHTESFFSLNLSFQHENYKYEMVSSFQHSIKMVVFTPKNGHICKMVYDKNIRIFKALYNEYVTSVIGFFRGLKLLLLNIFVIDDRGMIGNKYFQLLDDKYAPISVQGYVATIPKLKDFAEPYHPIILDISDIDYVNFYLGDATYHDPGFKIVPKTPQCITKVVDGNEVIYESSNPSVECVYKVTYYDKKNESMLRLDLNHSPPSYTSYYAKREGVWVTSTYIDLEEKIEELQDHRSTELDVMFMSDKDLNVVPLTNGNLEYFMVTPKPHRDIIIVFDGSEVLWYYEGLENHLVCTWIYVTEGAPRLVHLRVKDRIPQNTDIYMVKFGEYWVRISKTQYTQEIKKLIKKSKKKLPSIEEEDSDKHGGPPKGPEPPTGPGHSSSESKEHEDSKESKEPKEHGSPKETKEGEVTKKPGPAKEHKPSKIPVYTKRPEFPKKSKSPKRPESPKSPKRPVSPQRPVSPKSPKRPESLDIPKSPKRPESPKSPKRPVSPQRPVSPRRPESPKSPKSPKSPKSPKVPFDPKFKEKLYDSYLDKAAKTKETVTLPPVLPTDESFTHTPIGEPTAEQPDDIEPIEESVFIKETGILTEEVKTEDIHSETGEPEEPKRPDSPTKHSPKPTGTHPSMPKKRRRSDGLALSTTDLESEAGRILRDPTGKIVTMKRSKSFDDLTTVREKEHMGAEIRKIVVDDDGTEADDEDTHPSKEKHLSTVRRRRPRPKKSSKSSKPRKPD

Experiments:
[1] = biological target: T1, GFP-CLASP1_(1256-1538) (the kinetochore-binding domain of CLASP1) (human) (UniProt Q7Z460); test: co-IP; GFP-TRAP magnetic beads on lysate of TaC12 cells transduced with GFP-CLASP1(1256-1538); lysis buffer with 0.5% NP-40; Western blot; control: nontransduced TaC12
T1 sequence: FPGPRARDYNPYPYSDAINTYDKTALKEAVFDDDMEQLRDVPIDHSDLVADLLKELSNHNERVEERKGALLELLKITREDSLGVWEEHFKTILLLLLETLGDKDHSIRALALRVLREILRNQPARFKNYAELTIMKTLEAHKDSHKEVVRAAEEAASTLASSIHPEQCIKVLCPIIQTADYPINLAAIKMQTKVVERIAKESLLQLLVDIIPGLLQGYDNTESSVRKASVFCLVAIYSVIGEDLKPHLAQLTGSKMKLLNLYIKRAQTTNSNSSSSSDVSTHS

[2] = biological target: bovine CLASP1 (endogenous, host cell) (bovine (endogenous in TaC12)); test: co-IP; IP of endogenous CLASP1 with 1 ug rabbit anti-CLASP1 antibody on protein G Dynabeads from 1 mg TaC12 lysate, overnight at 4 C; 50 mM Tris-HCl pH 7.4, 150 mM NaCl, 1 mM EDTA, 1% NP-40, 0.25% sodium deoxycholate; mock: rabbit IgG; Western blot

Molecule | binding [1] | binding [2]
Theileria schizont surface protein gp34 | no binding | 
B1 |  | binds

These are yes or no findings as the source states them, for the method shown. Binding seen in cells or lysates may run through a third protein. For some assays here: A result given as binding can be weak or reduced; the word gives no strength. For some assays here: Tags and fused reporters may be left off the sequences shown.
